# Measurements published in the supplement of paper PMC5949888.
# Most values lie at the floor of the assay. Slopes are relative: functional sequences can read slightly below zero.
# System: Saccharomyces cerevisiae PS128 hsf1 delta, HSF1(1-493) fusion
# Test: growth estimate (transactivation domain function in HSF1 fusion, heat-shock survival) (a.u. (slope of normalised read count over time)); higher = stronger growth at 37°C, i.e. more transactivation activity
# Conditions: library: random library
row,Substance,growth estimate
1,APCF,< -0.25
2,GTGGRGGAWRVLNDLSGHQL,< -0.25
3,LQMAQI,< -0.25
4,AMRPCRSVDGPACTTASVSA,< -0.25
5,VSAGRKILTQEVVRV,< -0.25
6,PQFRVSASASSSAVGARRGP,< -0.25
7,TILRI,< -0.25
8,CVRYQGCAHLLCVTPLHNQM,< -0.25
9,HMGQHCDPGVTSFFFSIGGV,< -0.25
10,PVDGGFEIEGHTT,< -0.25
11,LSTGTGKVFLIYLHLLC,< -0.25
12,EWAVPLSPLGL,< -0.25
13,GFGYKDNRFGLTIRMPYGRD,< -0.25
14,IWP,< -0.25
15,LISTAEVEPIYRVKHFSSAP,< -0.25
16,IGSRVSPLCSSA,< -0.25
17,MTFLQTGLRTGLFTITLWRP,< -0.25
18,RAPSTVHLGVMLDGLKQRLT,< -0.25
19,GGSGVVSPIELCPNAMGLCS,< -0.25
20,CTNPMHRLRWECSFQRSRAV,< -0.25
21,RILALDCPKGTMCTDLTRNV,< -0.25
22,MPRSNTAAGKFPTTAQSLME,< -0.25
23,ARGWSKCRAPSSAAATREGS,< -0.25
24,GRLCCDSNPKAEVSSE,< -0.25

row,Substance,growth estimate
1,YYLPEGQARISTAITVDFFG,-0.246
2,GIRCRRSRCVGILNCWYVP,< -0.25
3,CGHRGTVKPCGKVSPKVVIR,< -0.25
4,GTYILGLTQLLRTGFTSSGH,< -0.25
5,PRNQTCALLVESGQFSSGPD,< -0.25
6,LGLPACHLKTSFIESVRYPT,< -0.25
7,HTLANDLFGATLVCPKVPAS,< -0.25
8,ASRSVCFPGCLSRPVLAGDD,< -0.25
9,TIARVRHEYRTLRFGGGPPR,< -0.25
10,MSAVGVVTPEVEVVFIRPRS,< -0.25
11,LYMEPLG,< -0.25
12,IGRRRRVEVFAFEVLLLRSR,< -0.25
13,PRISGLPVSC,-0.246
14,ERAGLITRRVVHRA,< -0.25
15,TGLSISGLIL,< -0.25
16,DRFP,< -0.25
17,LDPWRAVTLYFTRWLSKATS,< -0.25
18,SDQITFRSI,< -0.25
19,SVSSLVGLFTVSIEFIMSAA,-0.229
20,FVSFSERAP,< -0.25
21,TFLDYDL,< -0.25
22,ESDVVAERQDEFREGLWAGV,< -0.25
23,RYARWRWRATPGSPDEPAP,< -0.25
24,LLGLQLIQTWESHESPSP,-0.231

row,Substance,growth estimate
1,QVASSP,< -0.25
2,YGATLRDLEFPGRRATVYCV,< -0.25
3,SIVGDRQRSR,< -0.25
4,QRVHTLLGSLFLTGLQLVYR,< -0.25
5,SLARITNNRLCGHNVPHTRR,< -0.25
6,DKRLVNRMLGSMMGVSTVEC,< -0.25
7,VLKVFSDSVKVKIKLNRLIA,< -0.25
8,CHTRVVCIGRSR,< -0.25
9,RYKNIDNSKQSTYIMSCRAR,< -0.25
10,FQLIADL,< -0.25
11,NRGTGSLG,< -0.25
12,RPLLSMVGGTAMIVLPVAQS,< -0.25
13,FWASRAITLSF,< -0.25
14,ETVIARGNGNTTVSRHTCGN,-0.248
15,KGWEAEGVVCPFYRARF,< -0.25
16,WEVWLYTFLRVARAYDSGTS,< -0.25
17,LRWKWQQCPETDLIMYTSRH,< -0.25
18,IAGMNLSPYVCAVFTSGGRP,< -0.25
19,HPRKNGVSMIAGEKGYCWGI,< -0.25
20,KLNSRHKVYQSSESGRVQLL,< -0.25
21,IKGAVRLSGLVTSPPDHTRS,< -0.25
22,ERYQRSAPPRHVQTGVPGVG,< -0.25
23,NGSPNSRAHSRLLADPDYGQ,-0.246
24,GWGTGTCTWLSVFRHSRLVR,< -0.25

# Nothing new here: entries from further up.
row,Substance,growth estimate
24,LLGLQLIQTWESHESPSP,-0.231
1,QVASSP,< -0.25
2,YGATLRDLEFPGRRATVYCV,< -0.25
3,SIVGDRQRSR,< -0.25
4,QRVHTLLGSLFLTGLQLVYR,< -0.25
5,SLARITNNRLCGHNVPHTRR,< -0.25
6,DKRLVNRMLGSMMGVSTVEC,< -0.25
7,VLKVFSDSVKVKIKLNRLIA,< -0.25
8,CHTRVVCIGRSR,< -0.25
9,RYKNIDNSKQSTYIMSCRAR,< -0.25
10,FQLIADL,< -0.25
11,NRGTGSLG,< -0.25
12,RPLLSMVGGTAMIVLPVAQS,< -0.25
13,FWASRAITLSF,< -0.25
14,ETVIARGNGNTTVSRHTCGN,-0.248
15,KGWEAEGVVCPFYRARF,< -0.25
16,WEVWLYTFLRVARAYDSGTS,< -0.25
17,LRWKWQQCPETDLIMYTSRH,< -0.25
18,IAGMNLSPYVCAVFTSGGRP,< -0.25
19,HPRKNGVSMIAGEKGYCWGI,< -0.25
20,KLNSRHKVYQSSESGRVQLL,< -0.25
21,IKGAVRLSGLVTSPPDHTRS,< -0.25

# Further results:

row,Substance,growth estimate
1,RRLELPVGSQGRYCMRWPTR,< -0.25
2,WRDYDGGTLELCVLNYACWP,< -0.25
3,PGPASRPCQAKWLPPCRQIP,< -0.25
4,TSGKSTSAFETLRLATVQGI,< -0.25
5,DFLCCVTLNPCLLFQKVVGS,< -0.25
6,PSMYHLVEYGYHCGGASWLT,< -0.25
7,SGGFQDHGGCSGYSRSKFNG,< -0.25
8,VSEPMLLCKGFGSNAPS,< -0.25
9,MMRYVRPGSPITVRNYRVNY,< -0.25
10,LEQKYRNVRAVLREL,< -0.25
11,HVLLALRLTVVVHQ,< -0.25
12,FLVLSKRLTEAIDTNAVV,< -0.25
13,QYRQCRWFERGGSSVGSWIK,< -0.25
14,YTCSGRWVSNVMIGL,< -0.25
15,YHSAYSKNIRPP,< -0.25
16,DRLELG,< -0.25
17,RLEVVAATPSLLIV,< -0.25
18,LDHV,< -0.25
19,QPSNPNYRERCQGPV,-0.21
20,QIPSSLPLLLSHVLTQRSEC,< -0.25
21,TNFGRPMSE,< -0.25
22,LSVRLRG,< -0.25
23,TGNCLPKIFMDCKLWVAKRA,< -0.25
24,WGLIGHPS,< -0.25
